Publication PMC5643558

Legend:
[1] = target: T1, endogenous PFKP (phosphofructokinase 1 platelet isoform) (human (endogenous in U251, U87/EGFR, U87/EGFRvIII and 293T)) (UniProt Q01813); test: co-IP; endogenous proteins; immunoprecipitation with an anti-PFKP antibody; serum-starved U251 cells with or without EGF (100 ng/ml) for the indicated times; also U87/EGFR cells
T1 sequence: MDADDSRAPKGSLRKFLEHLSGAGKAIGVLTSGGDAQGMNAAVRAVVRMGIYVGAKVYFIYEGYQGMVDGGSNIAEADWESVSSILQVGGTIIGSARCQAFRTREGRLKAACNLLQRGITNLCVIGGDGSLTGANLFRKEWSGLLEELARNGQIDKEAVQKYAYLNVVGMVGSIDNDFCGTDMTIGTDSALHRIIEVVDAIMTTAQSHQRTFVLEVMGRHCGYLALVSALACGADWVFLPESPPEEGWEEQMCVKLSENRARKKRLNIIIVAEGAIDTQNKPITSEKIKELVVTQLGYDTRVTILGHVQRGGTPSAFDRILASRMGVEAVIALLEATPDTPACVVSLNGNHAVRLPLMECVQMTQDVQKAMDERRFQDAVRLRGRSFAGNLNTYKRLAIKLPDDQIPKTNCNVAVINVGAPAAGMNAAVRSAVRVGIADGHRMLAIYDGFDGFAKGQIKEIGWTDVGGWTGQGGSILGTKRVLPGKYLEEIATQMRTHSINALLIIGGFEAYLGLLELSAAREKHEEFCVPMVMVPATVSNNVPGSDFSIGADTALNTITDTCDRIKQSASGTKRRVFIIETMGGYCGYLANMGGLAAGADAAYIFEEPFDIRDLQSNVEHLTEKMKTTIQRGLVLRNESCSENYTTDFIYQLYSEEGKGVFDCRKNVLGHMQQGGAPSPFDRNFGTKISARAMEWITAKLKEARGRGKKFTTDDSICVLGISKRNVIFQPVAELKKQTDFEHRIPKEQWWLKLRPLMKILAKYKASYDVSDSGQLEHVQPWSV

SFB-PFKP (human) = target: T2, SFB-PFKP (human) (UniProt Q01813); test: pull-down; 293T cells co-transfected with SFB-PFKP and WT HA-TRIM21 or its truncation mutants for 24 h; pull-down of SFB-PFKP
T2 sequence: T1 sequence

Row | binding [1] | binding (SFB-PFKP (human)) | Substance
1 | binds | – | endogenous AKT (human (endogenous in U251 and U87/EGFR))
2 | – | no binding | HA-TRIM21 with deletion of the C-terminal SPRY domain (human) (domain or fragment)

No constants are given. Whether binding was seen depends on the method and setting. Binding seen in cells or lysates may run through a third protein. For some assays here: A result given as binding can be weak or reduced; the word gives no strength.
